These results are taken from paper doi:10.1101/2024.10.10.617680.

Chains of the proteins cited; added tags and fusions are not shown.
UniProt P51587: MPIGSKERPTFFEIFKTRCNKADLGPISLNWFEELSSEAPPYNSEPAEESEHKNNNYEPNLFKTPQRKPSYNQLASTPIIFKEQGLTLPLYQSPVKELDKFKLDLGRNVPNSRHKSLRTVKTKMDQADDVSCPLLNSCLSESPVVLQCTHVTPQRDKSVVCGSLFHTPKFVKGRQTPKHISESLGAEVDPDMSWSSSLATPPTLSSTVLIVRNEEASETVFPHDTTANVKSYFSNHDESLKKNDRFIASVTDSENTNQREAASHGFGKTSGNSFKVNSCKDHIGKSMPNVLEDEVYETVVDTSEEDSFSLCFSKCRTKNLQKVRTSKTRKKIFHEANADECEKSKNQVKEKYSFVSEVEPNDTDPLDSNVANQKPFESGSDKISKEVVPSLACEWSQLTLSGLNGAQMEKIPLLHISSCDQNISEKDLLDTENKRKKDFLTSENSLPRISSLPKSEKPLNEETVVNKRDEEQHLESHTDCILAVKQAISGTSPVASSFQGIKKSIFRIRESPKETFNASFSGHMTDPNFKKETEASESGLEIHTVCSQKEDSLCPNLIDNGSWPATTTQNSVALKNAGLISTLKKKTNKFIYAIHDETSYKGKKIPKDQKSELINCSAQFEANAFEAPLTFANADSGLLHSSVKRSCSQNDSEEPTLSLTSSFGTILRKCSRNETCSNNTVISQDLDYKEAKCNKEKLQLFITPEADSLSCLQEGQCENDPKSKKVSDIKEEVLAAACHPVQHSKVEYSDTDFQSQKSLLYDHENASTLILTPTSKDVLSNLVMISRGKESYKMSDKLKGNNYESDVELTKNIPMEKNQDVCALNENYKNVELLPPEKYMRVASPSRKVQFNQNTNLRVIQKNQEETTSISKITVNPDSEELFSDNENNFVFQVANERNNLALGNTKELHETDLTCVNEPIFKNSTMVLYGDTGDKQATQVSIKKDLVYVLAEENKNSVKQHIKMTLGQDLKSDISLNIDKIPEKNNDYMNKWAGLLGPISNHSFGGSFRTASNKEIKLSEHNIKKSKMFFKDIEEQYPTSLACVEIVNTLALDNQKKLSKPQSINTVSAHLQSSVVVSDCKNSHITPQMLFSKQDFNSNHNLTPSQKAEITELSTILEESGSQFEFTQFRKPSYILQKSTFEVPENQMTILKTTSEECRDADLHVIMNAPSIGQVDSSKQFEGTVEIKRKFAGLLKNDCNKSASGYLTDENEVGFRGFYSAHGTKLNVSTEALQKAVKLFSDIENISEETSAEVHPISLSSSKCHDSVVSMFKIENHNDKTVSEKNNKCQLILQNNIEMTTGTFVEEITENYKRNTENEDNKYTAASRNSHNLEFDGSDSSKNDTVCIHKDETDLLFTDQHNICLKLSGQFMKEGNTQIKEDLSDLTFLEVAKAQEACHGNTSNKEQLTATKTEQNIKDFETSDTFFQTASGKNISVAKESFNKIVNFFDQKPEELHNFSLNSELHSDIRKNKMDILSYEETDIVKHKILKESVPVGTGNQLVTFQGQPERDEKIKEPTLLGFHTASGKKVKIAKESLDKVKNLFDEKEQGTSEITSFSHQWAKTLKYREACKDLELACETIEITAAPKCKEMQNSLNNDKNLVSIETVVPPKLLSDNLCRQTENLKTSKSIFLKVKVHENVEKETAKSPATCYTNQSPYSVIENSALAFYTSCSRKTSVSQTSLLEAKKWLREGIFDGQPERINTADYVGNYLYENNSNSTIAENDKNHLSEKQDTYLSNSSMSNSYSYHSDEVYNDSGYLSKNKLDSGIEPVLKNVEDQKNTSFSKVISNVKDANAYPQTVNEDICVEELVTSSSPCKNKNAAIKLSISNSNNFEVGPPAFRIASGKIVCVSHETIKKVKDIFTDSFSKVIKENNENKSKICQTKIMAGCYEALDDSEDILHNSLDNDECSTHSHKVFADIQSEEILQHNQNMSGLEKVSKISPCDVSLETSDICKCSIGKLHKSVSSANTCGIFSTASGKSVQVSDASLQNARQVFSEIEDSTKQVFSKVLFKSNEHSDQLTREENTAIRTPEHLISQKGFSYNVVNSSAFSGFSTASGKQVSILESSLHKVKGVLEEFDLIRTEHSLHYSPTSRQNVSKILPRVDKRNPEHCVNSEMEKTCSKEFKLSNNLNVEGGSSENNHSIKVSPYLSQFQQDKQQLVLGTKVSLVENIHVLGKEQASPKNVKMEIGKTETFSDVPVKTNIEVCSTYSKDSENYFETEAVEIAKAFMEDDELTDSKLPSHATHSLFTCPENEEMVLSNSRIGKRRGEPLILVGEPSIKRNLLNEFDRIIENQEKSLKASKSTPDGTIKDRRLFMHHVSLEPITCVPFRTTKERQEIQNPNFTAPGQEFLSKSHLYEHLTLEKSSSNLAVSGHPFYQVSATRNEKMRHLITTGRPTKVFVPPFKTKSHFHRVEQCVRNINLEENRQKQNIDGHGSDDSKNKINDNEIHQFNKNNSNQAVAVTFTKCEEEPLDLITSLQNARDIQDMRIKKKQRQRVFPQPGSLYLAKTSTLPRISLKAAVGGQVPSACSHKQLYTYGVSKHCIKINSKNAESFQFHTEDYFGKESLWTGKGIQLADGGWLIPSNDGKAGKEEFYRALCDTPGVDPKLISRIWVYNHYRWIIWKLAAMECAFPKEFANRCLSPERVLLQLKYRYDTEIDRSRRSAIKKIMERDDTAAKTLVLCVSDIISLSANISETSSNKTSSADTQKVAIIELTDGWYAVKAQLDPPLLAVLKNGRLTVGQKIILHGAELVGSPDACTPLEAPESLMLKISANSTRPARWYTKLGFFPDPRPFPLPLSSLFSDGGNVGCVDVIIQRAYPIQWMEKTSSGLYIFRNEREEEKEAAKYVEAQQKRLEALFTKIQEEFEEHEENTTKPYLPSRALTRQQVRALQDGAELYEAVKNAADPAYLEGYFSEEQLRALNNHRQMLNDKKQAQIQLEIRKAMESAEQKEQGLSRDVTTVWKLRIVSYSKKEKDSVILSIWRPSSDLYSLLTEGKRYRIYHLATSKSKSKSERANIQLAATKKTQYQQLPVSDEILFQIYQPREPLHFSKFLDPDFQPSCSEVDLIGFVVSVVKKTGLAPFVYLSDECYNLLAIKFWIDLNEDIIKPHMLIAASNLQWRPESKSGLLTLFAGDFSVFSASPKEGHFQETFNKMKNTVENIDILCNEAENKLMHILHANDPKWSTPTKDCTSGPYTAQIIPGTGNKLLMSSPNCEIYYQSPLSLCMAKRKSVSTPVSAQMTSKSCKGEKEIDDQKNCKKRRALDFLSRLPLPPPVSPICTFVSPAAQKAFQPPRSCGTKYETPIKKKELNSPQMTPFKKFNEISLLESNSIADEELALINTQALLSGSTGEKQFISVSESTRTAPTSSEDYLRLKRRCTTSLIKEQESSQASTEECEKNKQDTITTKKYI
UniProt P25454: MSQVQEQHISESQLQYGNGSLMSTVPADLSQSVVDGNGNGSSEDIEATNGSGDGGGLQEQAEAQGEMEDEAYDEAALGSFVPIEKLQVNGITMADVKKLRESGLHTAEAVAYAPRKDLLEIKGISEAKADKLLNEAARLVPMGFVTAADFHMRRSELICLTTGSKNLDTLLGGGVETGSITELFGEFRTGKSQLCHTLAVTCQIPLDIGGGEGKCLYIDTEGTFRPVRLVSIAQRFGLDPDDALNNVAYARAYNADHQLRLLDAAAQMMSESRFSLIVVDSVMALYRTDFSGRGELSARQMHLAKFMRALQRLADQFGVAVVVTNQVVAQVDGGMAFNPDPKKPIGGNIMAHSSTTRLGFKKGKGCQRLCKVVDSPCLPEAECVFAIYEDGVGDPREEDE

Like-named read-outs stand apart in the source and are kept apart here. No constants are given. Whether binding was seen depends on the method and setting. For part of these data: In cells and extracts the contact can be indirect. Some binding calls cover weakened binding; strength is not graded here. Sequences can lack the tags named with a protein.

The target in assay [1] is 2XMBP-tagged full-length BRCA2 (human) (UniProt P51587). Description: pull-down.
Assay [2] has the same target. Description: pull-down. The source holds these as a separate data set.
Assay [3] concerns the target 2XMBP-tagged full-length BRCA2 (human), P51587. Description: pull-down. Particulars: remark: other sources report otherwise.
The target is the same in assay [4]. As to the kind of experiment: pull-down. Particulars: remark: other sources report otherwise. This is another data set of the same source.
Assay [5] addresses yeast Rad51 (endogenous) (S. cerevisiae (endogenous in PJ69-4α)) (UniProt P25454). Description: two-hybrid.

B1: HA-tagged XRCC3 (protein, UniProt O43542 1-346)
chain: MDLDLLDLNPRIIAAIKKAKLKSVKEVLHFSGPDLKRLTNLSSPEVWHLLRTASLHLRGSSILTALQLHQQKERFPTQHQRLSLGCPVLDALLRGGLPLDGITELAGRSSAGKTQLALQLCLAVQFPRQHGGLEAGAVYICTEDAFPHKRLQQLMAQQPRLRTDVPGELLQKLRFGSQIFIEHVADVDTLLECVNKKVPVLLSRGMARLVVIDSVAAPFRCEFDSQASAPRARHLQSLGATLRELSSAFQSPVLCINQVTEAMEEQGAAHGPLGFWDERVSPALGITWANQLLVRLLADRLREEEAALGCPARTLRVLSAPHLPPSSCSYTISAEGVRGTPGTQSH
Regarding B1, the binding entry in assay [1] and in assay [2] was “binds” throughout.

B2: HA-tagged RAD51D (protein, UniProt O75771 1-328)
chain: MGVLRVGLCPGLTEEMIQLLRSHRIKTVVDLVSADLEEVAQKCGLSYKALVALRRVLLAQFSAFPVNGADLYEELKTSTAILSTGIGSLDKLLDAGLYTGEVTEIVGGPGSGKTQVCLCMAANVAHGLQQNVLYVDSNGGLTASRLLQLLQAKTQDEEEQAEALRRIQVVHAFDIFQMLDVLQELRGTVAQQVTGSSGTVKVVVVDSVTAVVSPLLGGQQREGLALMMQLARELKTLARDLGMAVVVTNHITRDRDSGRLKPALGRSWSFVPSTRILLDTIEGAGASGGRRMACLAKSSRQPTGFQEMVDIGTWGTSEQSATLQGDQT
For B2, the binding entry in assay [1] and in assay [2] was “binds” each time.

B3: HA-tagged XRCC2, O43543 1-280 (protein)
chain: MCSAFHRAESGTELLARLEGRSSLKEIEPNLFADEDSPVHGDILEFHGPEGTGKTEMLYHLTARCILPKSEGGLEVEVLFIDTDYHFDMLRLVTILEHRLSQSSEEIIKYCLGRFFLVYCSSSTHLLLTLYSLESMFCSHPSLCLLILDSLSAFYWIDRVNGGESVNLQESTLRKCSQCLEKLVNDYRLVLFATTQTIMQKASSSSEEPSHASRRLCDVDIDYRPYLCKAWQQLVKHRMFFSKQDDSQSSNQFSLVSRCLKSNSLKKHFFIIGESGVEFC
B3: the binding result in assay [3] and in assay [4] was “binds” throughout.

B4: HA-tagged RAD51B (full-length wild type) (protein, UniProt O15315-1 1-350)
chain: MGSKKLKRVGLSQELCDRLSRHQILTCQDFLCLSPLELMKVTGLSYRGVHELLCMVSRACAPKMQTAYGIKAQRSADFSPAFLSTTLSALDEALHGGVACGSLTEITGPPGCGKTQFCIMMSILATLPTNMGGLEGAVVYIDTESAFSAERLVEIAESRFPRYFNTEEKLLLTSSKVHLYRELTCDEVLQRIESLEEEIISKGIKLVILDSVASVVRKEFDAQLQGNLKERNKFLAREASSLKYLAEEFSIPVILTNQITTHLSGALASQADLVSPADDLSLSEGTSGSSCVIAALGNTWSHSVNTRLILQYLDSERRQILIAKSPLAPFTSFVYTIKEEGLVLQAYGNS
For the molecule B4, the binding result in assay [1] and in assay [2] was “binds” in each case.

B5: GAL4 AD-RAD51B (protein, UniProt O15315-1 1-350)
chain: MGSKKLKRVGLSQELCDRLSRHQILTCQDFLCLSPLELMKVTGLSYRGVHELLCMVSRACAPKMQTAYGIKAQRSADFSPAFLSTTLSALDEALHGGVACGSLTEITGPPGCGKTQFCIMMSILATLPTNMGGLEGAVVYIDTESAFSAERLVEIAESRFPRYFNTEEKLLLTSSKVHLYRELTCDEVLQRIESLEEEIISKGIKLVILDSVASVVRKEFDAQLQGNLKERNKFLAREASSLKYLAEEFSIPVILTNQITTHLSGALASQADLVSPADDLSLSEGTSGSSCVIAALGNTWSHSVNTRLILQYLDSERRQILIAKSPLAPFTSFVYTIKEEGLVLQAYGNS
In the case of B5, in assay [5], the binding result was “binds”.
